PubChem BioAssay AID743121, NCATS, 2013
This is a random part of about 26,000 reagents. Of all reagents, 167 (0.63%) got an active call. 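Calls are per gene from RSA p-values that are not deposited; an individual active-marked siRNA can sensitise only weakly.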 Entries without a mark were called inactive. Reagents against one gene are numbered here. Further read-outs or replicates are left out here.

Purpose: 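Knock-downs that sensitise breast cancer cells to camptothecin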 (primary screen)
Cells: MDA-MB-231 cells, a human breast cancer line
Reagent: single siRNA against human genes, 20 nM siRNA (0.8 pmol per well)
Duration: 120 h (drug added 48 h after transfection, read 72 h later)
Conditions: camptothecin 20 nM (about EC30) for 72 h; vehicle 0.1% DMSO in parallel plates
Measured: 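Cell viability by ATP luminescence (CellTiter-Glo) as % of non-targeting siRNA wells, and the log2 ratio of viability without drug over viability with camptothecin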
Reading the numbers: log2 vehicle/camptothecin viability: higher = stronger sensitisation to camptothecin; viability with camptothecin: higher = more viable cells
Call rule: 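Each gene scored by redundant siRNA activity (RSA) over its individual siRNA ratios; a gene is called active at p < 0.001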

Knock-down of SUPT16H (GeneID 11198) #1 resulted in: log2 vehicle/camptothecin viability -0.31; viability with camptothecin (% of control) = 83.4.
With knock-down of SUPT16H (GeneID 11198) #2, the screen gave log2 vehicle/camptothecin viability -0.315; viability with camptothecin (% of control) = 100.
SUPT16H (GeneID 11198) #3 gave log2 vehicle/camptothecin viability 0.19; viability with camptothecin (% of control) = 51.6.
Depletion of SUPT16H (GeneID 11198) #4 gave: log2 vehicle/camptothecin viability -0.167; viability with camptothecin (% of control) = 101.
Depletion of FLRT1 (GeneID 23769) #1 came out at: log2 vehicle/camptothecin viability -0.356; viability with camptothecin (% of control) = 135.
After knock-down of FLRT1 (GeneID 23769) #2, the screen gave log2 vehicle/camptothecin viability -0.246; viability with camptothecin (% of control) = 56.9.
For FLRT1 (GeneID 23769) #3 the deposit lists log2 vehicle/camptothecin viability -0.124; viability with camptothecin (% of control) = 65.2.
With knock-down of PHF6 (GeneID 84295) #1, the screen gave log2 vehicle/camptothecin viability -0.221; viability with camptothecin (% of control) = 102.
PHF6 (GeneID 84295) #2 gave log2 vehicle/camptothecin viability -0.159; viability with camptothecin (% of control) = 120.
PHF6 (GeneID 84295) #3 gave log2 vehicle/camptothecin viability -0.34; viability with camptothecin (% of control) = 85.2.
For PHF6 (GeneID 84295) #4 the deposit lists log2 vehicle/camptothecin viability -0.308; viability with camptothecin (% of control) = 114.
Silencing of PIK3R5 (GeneID 23533) #1 came out at: log2 vehicle/camptothecin viability 0.296; viability with camptothecin (% of control) = 23.8.
PIK3R5 (GeneID 23533) #2 scored log2 vehicle/camptothecin viability -0.843; viability with camptothecin (% of control) = 51.7.
With knock-down of PIK3R5 (GeneID 23533) #3 the results were log2 vehicle/camptothecin viability -0.519; viability with camptothecin (% of control) = 68.8.
PIK3R5 (GeneID 23533) #4 showed log2 vehicle/camptothecin viability -0.0438; viability with camptothecin (% of control) = 104.
AKAP10 (GeneID 11216) #1 gave log2 vehicle/camptothecin viability -0.399; viability with camptothecin (% of control) = 84.4.
With knock-down of AKAP10 (GeneID 11216) #2, the screen gave log2 vehicle/camptothecin viability -0.429; viability with camptothecin (% of control) = 96.2.
With knock-down of AKAP10 (GeneID 11216) #3, the screen gave log2 vehicle/camptothecin viability -0.0293; viability with camptothecin (% of control) = 74.6.
AKAP10 (GeneID 11216) #4 scored log2 vehicle/camptothecin viability -0.086; viability with camptothecin (% of control) = 73.9.
PDPR (GeneID 55066) #1 gave log2 vehicle/camptothecin viability -0.179; viability with camptothecin (% of control) = 128.
Against PDPR (GeneID 55066) #2, the values are log2 vehicle/camptothecin viability -0.414; viability with camptothecin (% of control) = 89.6.
Depletion of PDPR (GeneID 55066) #3 resulted in: log2 vehicle/camptothecin viability -0.0041; viability with camptothecin (% of control) = 58.9.
PDPR (GeneID 55066) #4 scored log2 vehicle/camptothecin viability 0.151; viability with camptothecin (% of control) = 54.9.
Depletion of NME7 (GeneID 29922) #1 resulted in: log2 vehicle/camptothecin viability 0.124; viability with camptothecin (% of control) = 92.7.
After knock-down of NME7 (GeneID 29922) #2, the record shows log2 vehicle/camptothecin viability -0.353; viability with camptothecin (% of control) = 58.8.
Knock-down of NME7 (GeneID 29922) #3 gave: log2 vehicle/camptothecin viability -0.362; viability with camptothecin (% of control) = 43.1.
NME7 (GeneID 29922) #4 gave log2 vehicle/camptothecin viability -0.691; viability with camptothecin (% of control) = 82.7.
NEIL2 (GeneID 252969) #1 showed log2 vehicle/camptothecin viability 0.0475; viability with camptothecin (% of control) = 74.2.
After knock-down of NEIL2 (GeneID 252969) #2, the record shows log2 vehicle/camptothecin viability 0.0598; viability with camptothecin (% of control) = 86.2.
Knock-down of NEIL2 (GeneID 252969) #3 resulted in: log2 vehicle/camptothecin viability -0.0256; viability with camptothecin (% of control) = 98.9.
NEIL2 (GeneID 252969) #4 showed log2 vehicle/camptothecin viability -0.483; viability with camptothecin (% of control) = 57.
Depletion of CHRFAM7A (GeneID 89832) #1 gave: log2 vehicle/camptothecin viability -0.687; viability with camptothecin (% of control) = 76.6.
Silencing of CHRFAM7A (GeneID 89832) #2 resulted in: log2 vehicle/camptothecin viability -0.359; viability with camptothecin (% of control) = 143.
CHRFAM7A (GeneID 89832) #3 showed log2 vehicle/camptothecin viability -0.0958; viability with camptothecin (% of control) = 108.
CHRFAM7A (GeneID 89832) #4 gave log2 vehicle/camptothecin viability -0.19; viability with camptothecin (% of control) = 83.6.
With knock-down of EYA1 (GeneID 2138) #1, the record shows log2 vehicle/camptothecin viability 0.533; viability with camptothecin (% of control) = 51.8.
For EYA1 (GeneID 2138) #2, the entry reads log2 vehicle/camptothecin viability 0.3; viability with camptothecin (% of control) = 75.7.
For EYA1 (GeneID 2138) #3, the values are log2 vehicle/camptothecin viability -0.365; viability with camptothecin (% of control) = 98.4.
EYA1 (GeneID 2138) #4 gave log2 vehicle/camptothecin viability -0.217; viability with camptothecin (% of control) = 89.4.
DPP9 (GeneID 91039) #1 showed log2 vehicle/camptothecin viability 0.0864; viability with camptothecin (% of control) = 96.
For DPP9 (GeneID 91039) #2, the entry reads log2 vehicle/camptothecin viability 0.261; viability with camptothecin (% of control) = 74.5.
Against DPP9 (GeneID 91039) #3, the values are log2 vehicle/camptothecin viability 0.438; viability with camptothecin (% of control) = 47.2.
DPP9 (GeneID 91039) #4 gave log2 vehicle/camptothecin viability 0.0249; viability with camptothecin (% of control) = 111.
Depletion of RSPH10B (GeneID 222967) #1 resulted in: log2 vehicle/camptothecin viability -0.359; viability with camptothecin (% of control) = 91.5.
RSPH10B (GeneID 222967) #2 gave log2 vehicle/camptothecin viability 0.363; viability with camptothecin (% of control) = 71.1.
RSPH10B (GeneID 222967) #3 scored log2 vehicle/camptothecin viability 0.0125; viability with camptothecin (% of control) = 89.3.
Depletion of RSPH10B (GeneID 222967) #4 gave: log2 vehicle/camptothecin viability -0.146; viability with camptothecin (% of control) = 85.5.

4 of these entries, set out differently.
| gene knocked down | siRNA no. | log2 vehicle/camptothecin viability | viability with camptothecin (% of control) |
| --- | --- | --- | --- |
| AKAP10 (GeneID 11216) | 2 | -0.429 | 96.2 |
| AKAP10 (GeneID 11216) | 3 | -0.0293 | 74.6 |
| AKAP10 (GeneID 11216) | 4 | -0.086 | 73.9 |
| PDPR (GeneID 55066) | 1 | -0.179 | 128 |
